# According to PubChem BioAssay (EPA / NIEHS):
# By UniProt entry, the sequences of proteins in these tests, tags left out.
# UniProt P23975, whole entry, looked up: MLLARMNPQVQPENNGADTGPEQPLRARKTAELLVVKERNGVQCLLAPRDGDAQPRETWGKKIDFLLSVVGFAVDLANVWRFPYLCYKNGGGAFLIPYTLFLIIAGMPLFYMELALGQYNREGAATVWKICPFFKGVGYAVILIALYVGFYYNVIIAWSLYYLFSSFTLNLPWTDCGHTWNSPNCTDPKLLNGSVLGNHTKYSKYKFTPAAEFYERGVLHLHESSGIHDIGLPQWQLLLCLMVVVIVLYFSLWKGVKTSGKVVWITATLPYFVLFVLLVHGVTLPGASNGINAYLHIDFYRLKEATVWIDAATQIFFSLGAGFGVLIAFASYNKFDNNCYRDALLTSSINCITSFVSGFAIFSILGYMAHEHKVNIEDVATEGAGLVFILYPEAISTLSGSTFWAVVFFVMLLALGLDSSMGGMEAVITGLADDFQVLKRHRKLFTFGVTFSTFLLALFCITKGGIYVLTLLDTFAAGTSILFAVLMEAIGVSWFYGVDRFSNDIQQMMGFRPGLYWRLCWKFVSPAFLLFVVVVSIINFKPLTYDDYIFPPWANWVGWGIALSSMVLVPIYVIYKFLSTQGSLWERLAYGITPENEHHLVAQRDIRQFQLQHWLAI
# Inconclusive results, whose numbers are uncertain, are shown with a selection of clear calls. Where the call is inconclusive, the potency comes from a doubtful curve fit. Active and inactive are the calls of the source. Rule for the calls: active = hit-call score of the fitted dose curve at least 0.9, where 1 is the maximum; inconclusive = response in the unintended direction; inactive = score below 0.9.
# Molecular target: human Norepinephrine Transporter (NET), SLC6A2 (gene 6530) (UniProt P23975)
# Experiment: NVS_TR_hNET: NovaScreen (NVS) Transporter Assay for human Norepinephrine Transporter (NET) (AID 2283377);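 note: cell-free membrane protein extracted from CHO cells expressing human NET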
# Procedure: NVS_TR_hNET is a biochemical, single-readout assay that uses extracted gene-proteins from CHO in a cell-free assay. Measurements were taken 1 hour after chemical dosing in a 96-well plate.NVS_TR_hNET is one of one assay component(s) measured or calculated from the NVS_TR_hNET assay. It is designed to make measurements of radioligand binding, a form of binding reporter, as detected with scintillation counting signals by Filter-based radiodetection technology.Data from the assay component NVS_TR_hNET was analyzed into 1 assay endpoint. This assay endpoint, NVS_TR_hNET, was analyzed in the positive analysis fitting direction relative to DMSO as the negative control and baseline of activity. Using a type of binding reporter, loss-of-signal activity can be used to understand changes in the binding as they relate to the gene SLC6A2. Furthermore, this assay endpoint can be referred to as a primary readout, because the performed assay has only produced 1 assay endpoint. To generalize the intended target to other relatable targets, this assay endpoint is annotated to the transporter intended target family, where the subfamily is neurotransmitter transporter.
# Binding assays used specific radioligands (tritiated, iodinated) with non-radioactive competitive displacement ligands in agonist or antagonist protocols (as indicated) and various reference compounds and inhibitors to titrate specific binding to receptors and transporters. Most enzyme assays (CYPs, kinases, phosphatases, proteases, HDACs) used recombinant protein and specific substrates (fluorescence mostly, some colorimetric and radioactive) and inhibitors, followed by a biochemical separation of substrate and product. All assays for the biochemical HTS were initially run in duplicate at a single concentration (10 uM for CYP450 assays and 25 uM for all others). […] Each assay was run with positive and negative controls, and concurrent controls on every plate. The follow-up (secondary) screen tested active chemical-pairs in concentration series, as well as a few additional assays not tested in the primary screen, some selected negative inactives, and several cases re-run in the concentration series for confirmatory purposes.
SMILES,outcome,AC50
Cc1cc(O)c(C)c(C)c1O,inactive,–
[Cl][Sc]([Cl])[Cl],–,inconclusive: 0.149 µM
COc1cc(S(=O)(=O)O)c(C)cc1N=Nc1c(O)ccc2cc(S(=O)(=O)O)ccc12,inactive,–
CCCC(O)C(O)CO (stereo not given),inactive,–
Cn1cnc2c1c(=O)[nH]c(=O)n2C,–,inconclusive: 10.5 µM
Cn1cccc1,–,inconclusive: 14.9 µM
O=C1NC(=O)[C@@H]2CC=CC[C@H]12,inactive,–
CCOC(=O)CCC(=O)OCC,–,inconclusive: 25 µM
CC(O)COc1ccccc1 (stereo not given),inactive,–
CCCCCCCCCCCCCCC,inactive,–
CC(C)CCCCCOC(=O)CS,–,inconclusive: 25 µM
CC(=O)OCCC(C)C,inactive,–
OC[C@@H](O)[C@@H](O)[C@H](O)[C@H](O)CO,–,inconclusive: 25 µM
CCn1nc(C)c2c1C(=O)NCC(c1ccc(O)cc1)=N2,–,inconclusive: 25 µM
CCOC(=O)CN[C@@H](C(=O)N1CC[C@H]1C(=O)NCc1ccc(/C(N)=N/O)cc1)C1CCCCC1,–,inconclusive: 1.25 µM

# Not a retest: four of the compounds above.
SMILES,outcome,AC50
Cn1cccc1,–,inconclusive: 14.9 µM
O=C1NC(=O)[C@@H]2CC=CC[C@H]12,inactive,–
CCOC(=O)CCC(=O)OCC,–,inconclusive: 25 µM
CC(O)COc1ccccc1 (stereo not given),inactive,–
